# Measurements taken from patent US20250346657A1 (INTERVET, published 2025).
# Where a chain is given by its changes, count along the chain named. Results are given in words; binding and its absence hold for the method and conditions named. Some results given as binding are weak or reduced against the parent protein; the word gives no strength.
# B1: fFulVH2-fIgG1am4/fFulVL1-fCk (antibody)
# heavy: EVQLVESGGDLVQPGGSLRLTCVASGFTFSSYSMNWVRQAPGKGLQWVSYISRSSHTIFYADSVKGRFTISRDNAKNTLYLQMDSLKDEDTATYYCARVYSSGWHVSDYFDYWGQGILVTVSSASTTAPSVFPLAPSCGTTSGATVALACLVLGYFPEPVTVSWNSGALTSGVHTFPAVLQASGLYSLSSMVTVPSSRWLSDTFTCNVAHPPSNTKVDKTVRKTDHPPGPKPCDCPKCPPPEMLGGPSIFIFPPKPKDTLSISRTPEVTCLVVALGPDDSDVQITWFVDNTQVYTAKTSPREEQFASTYRVVSVLPILHQDWLKGKEFKCKVNSKSLPSPIERTISKAKGQPHEPQVYVLPPAQEELSRNKVSVTCLIKSFHPPDIAVEWEITGQPEPENNYRTTPPQLDSDGTYFVYSKLSVDRSHWQRGNTYTCSVSHEALHSHHTQKSLTQSPGK
# light: EIQLTQSPSSLSASPGDRVTITCRASQGISSALAWYQQKPGKVPKLLIYDASSLESGVPSRFSGSGSGTDFTLTISSLEPEDAATYYCQQFNSYPLTFGQGTKLEIKRSDAQPSVFLFQPSLDELHTGSASIVCILNDFYPKEVNVKWKVDGVVQNKGIQESTTEQNSKDSTYSLSSTLTMSSTEYQSHEKFSCEVTHKSLASTLVKSFNRSECQRE
# B2: fFulVH2-fIgG1am4/fFulVL2-fCk (antibody)
# heavy: B1 heavy
# light: AITLTQSPGSLAGSPGQQVTITCRASQGISSALAWYQQKPGQHPKLLIYDASSLESGVPDRFSGSGSGTDFTLTISNLQAEDVASYYCQQFNSYPLTFGQGTKLEIKRSDAQPSVFLFQPSLDELHTGSASIVCILNDFYPKEVNVKWKVDGVVQNKGIQESTTEQNSKDSTYSLSSTLTMSSTEYQSHEKFSCEVTHKSLASTLVKSFNRSECQRE
# B3: fFulVH4-fIgG1am4/fFulVL1-fCk (antibody)
# heavy: B1 heavy with G8E
# light: B1 light
# B4: fFulVH4-fIgG1am4/fFulVL2-fCk (antibody)
# heavy: B1 heavy with G8E
# light: B2 light
# Target: feline NGF (feline)
# Experiment: ELISA, feline NGF
row,Binder,binding
1,B1,binds
2,B2,binds
3,B3,binds
4,B4,binds
